Data source: PubChem BioAssay AID504764 (Drosophila RNAi Screening Center, 2011)
Screen: 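Knock-downs that raise or lower a Notch target reporter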 (primary screen). Cells: Drosophila Kc167 cells. Knock-down reagent: long dsRNA against Drosophila genes. Duration: about 5 days (4 days dsRNA, then 24 h after transfection). Treatment: transfection of constitutively active membrane-tethered Notch lacking the extracellular domain, read 24 h later. Measured: 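Light from a Notch-responsive E(spl)m3 luciferase reporter under active Notch, with control-promoter and no-Notch reporter wells to normalise; raw counts from paired wells a and b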. Direction: induced reporter light, run 1, well a and induced reporter light, run 1, well b: higher = more light from the Notch target reporter with active Notch; control promoter light, run 1, well a and control promoter light, run 1, well b: higher = more light from the viral control promoter (cell number, transfection, viability); uninduced reporter light, run 1, well a: higher = more light from the Notch target reporter without active Notch. Call rule: 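Hit if the duplicate-averaged log2 ratio of induced to control-promoter light gives a plate-wise z beyond ±2, or induced to uninduced beyond ±1.8; weak-control or discordant-duplicate wells dropped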. Calls: active = modifier hit (raised or lowered Notch signal); inactive = not a hit.
In all, the deposit lists about 22,000 reagents; this is a random part of those with a known target gene and a result. Over the whole deposit, 403 (1.9%) got an active call. 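Unnormalised raw counts per well; ratio z-scores behind the hit calls and whether each hit raises or lowers signal are not deposited.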 Reagents against one gene are numbered here. A plus sign joins genes that one reagent is predicted to hit. Not stated in the record: the amount of reagent.

| target gene | reagent | induced reporter light, run 1, well a | induced reporter light, run 1, well b | control promoter light, run 1, well a | control promoter light, run 1, well b | uninduced reporter light, run 1, well a | Call |
| --- | --- | --- | --- | --- | --- | --- | --- |
| ChT | 1 | 1.34e5 | 1.57e5 | 2.59e5 | 2.90e5 | 11500 | active |
| CG13239 | 1 | 1.40e5 | 89075 | 1.07e5 | 85655 | 7840 | inactive |
| CG4520 | 1 | 2.57e5 | 3.05e5 | 2.45e5 | 2.30e5 | 20625 | inactive |
| fru | 1 | 16815 | 16680 | 20420 | 21325 | 5665 | inactive |
| fru | 2 | 2.19e5 | 2.14e5 | 2.18e5 | 2.66e5 | 14388 | inactive |
| fru | 3 | 2.05e5 | 1.71e5 | 1.80e5 | 1.66e5 | 12355 | inactive |
| fru | 4 | – | – | – | – | – | inactive |
| CG13067 | 1 | 1.72e5 | 1.33e5 | 1.68e5 | 1.74e5 | 6925 | inactive |
| CG2182 | 1 | 1.62e5 | 1.60e5 | 1.02e5 | 91220 | 11930 | inactive |
| sxc | 1 | 1.95e5 | 1.52e5 | 1.98e5 | 2.16e5 | 13382 | inactive |
| CG13484 | 1 | 2.62e5 | 1.98e5 | 3.21e5 | 2.64e5 | 5490 | inactive |
| Diap1 | 1 | 1330 | 838 | 3565 | 2820 | 238 | inactive |
| Rab40 | 1 | 59140 | 66820 | 67620 | 78880 | 4250 | inactive |
| Marf | 1 | 1.23e5 | 1.34e5 | 1.57e5 | 1.14e5 | 9742 | inactive |
| CG3777 | 1 | 1.89e5 | 1.30e5 | 2.91e5 | 3.29e5 | 13375 | inactive |
| alpha-Cat | 1 | 1.16e5 | 1.02e5 | 63495 | 78025 | 8490 | inactive |
| CG31642 | 1 | 1.08e5 | 1.01e5 | 94345 | 93965 | 6235 | inactive |
| Mob2 | 1 | 71580 | 74835 | 51595 | 60795 | 7695 | inactive |
| Mob2 | 2 | 2.10e5 | 1.85e5 | 1.90e5 | 1.79e5 | 17305 | inactive |
| Mob2 | 3 | 62185 | 58165 | 32940 | 12920 | 8125 | inactive |
| CG33003 | 1 | – | – | – | – | – | inactive |

The list goes on (3 carried over from the part before).
| target gene | reagent | induced reporter light, run 1, well a | induced reporter light, run 1, well b | control promoter light, run 1, well a | control promoter light, run 1, well b | uninduced reporter light, run 1, well a | Call |
| --- | --- | --- | --- | --- | --- | --- | --- |
| Mob2 | 2 | 2.10e5 | 1.85e5 | 1.90e5 | 1.79e5 | 17305 | inactive |
| Mob2 | 3 | 62185 | 58165 | 32940 | 12920 | 8125 | inactive |
| CG33003 | 1 | – | – | – | – | – | inactive |
| Ddx1 | 1 | 1.66e5 | 1.76e5 | 94475 | 1.07e5 | 9785 | inactive |
| l(3)psg2 | 1 | 76675 | 1.01e5 | 96655 | 48655 | 12720 | inactive |
| CG13299 | 1 | 2.12e5 | 1.51e5 | 1.81e5 | 2.00e5 | 6670 | inactive |
| pAbp | 1 | 17535 | 15115 | 32735 | 31655 | 1675 | inactive |
| Prx6c | 1 | 1.95e5 | 1.64e5 | 2.61e5 | 2.72e5 | 16735 | inactive |
| CG42824 + CG42823 | 1 | 53250 | 54345 | 70230 | 81980 | 7895 | inactive |
| vanin-like | 1 | 73285 | 71335 | 64715 | 56500 | 4800 | inactive |
| PIG-C | 1 | 1.28e5 | 1.37e5 | 1.63e5 | 1.54e5 | 8610 | inactive |
| Usp12-46 | 1 | 1.38e5 | 1.64e5 | 1.87e5 | 1.53e5 | 12570 | inactive |
| Tango10 | 1 | 1.83e5 | 2.26e5 | 3.38e5 | 2.46e5 | 13040 | inactive |
| Grd | 1 | 2.07e5 | 1.84e5 | 1.91e5 | 2.27e5 | 7980 | inactive |
| CG9672 | 1 | 1.42e5 | 1.46e5 | 1.63e5 | 1.11e5 | 10270 | inactive |
| CG11384 | 1 | 1.43e5 | 1.36e5 | 2.37e5 | 3.10e5 | 11530 | inactive |
| Rab5 | 1 | 1.03e5 | 1.16e5 | 1.19e5 | 1.22e5 | 10925 | inactive |
| Dhpr | 1 | 2.50e5 | 1.61e5 | 2.49e5 | 2.17e5 | 10765 | inactive |
| CG6885 | 1 | 1.86e5 | 1.65e5 | 2.68e5 | 2.14e5 | 10230 | inactive |
| Amph | 1 | 74060 | 83165 | 65655 | 52170 | 7030 | inactive |
| CG8206 | 1 | 1.44e5 | 1.30e5 | 2.06e5 | 1.31e5 | 10495 | inactive |
| Roc2 | 1 | 1.18e5 | 1.18e5 | 1.48e5 | 1.37e5 | 9655 | inactive |
| CG30480 | 1 | 86555 | 81145 | 1.13e5 | 1.03e5 | 9195 | inactive |
| cpb | 1 | 1.28e5 | 1.39e5 | 1.76e5 | 1.75e5 | 11770 | inactive |
| Nup160 | 1 | 65110 | 90735 | 46725 | 57875 | 8495 | inactive |
| CG5521 | 1 | 1.63e5 | 1.48e5 | 1.81e5 | 1.93e5 | 13000 | inactive |
| garz | 1 | 80560 | 70760 | 1.19e5 | 93785 | 6200 | inactive |
| RpL23A | 1 | 44115 | 39235 | 62545 | 65915 | 2565 | inactive |
| CG12398 | 1 | 98340 | 82855 | 1.35e5 | 1.11e5 | 10400 | inactive |
| Pgant5 | 1 | 1.58e5 | 1.50e5 | 1.99e5 | 2.25e5 | 11935 | active |
| Clc | 1 | 99370 | 1.22e5 | 65750 | 87615 | 9855 | inactive |
| Tim10 + CG42497 | 1 | 1.56e5 | 1.46e5 | 1.29e5 | 1.31e5 | 10760 | inactive |
